In paper PMC7950113:
These are yes or no findings as the source states them, for the method shown. Binding seen in cells or lysates may run through a third protein. A yes stands for co-enrichment or nearness to the bait. Other partners may have been found. Tags and fused reporters may be left off the sequences shown.

The chains behind the UniProt entries cited, without tags or fusion partners. Where a name states a change or a piece, a line headed by the entry shows the natural chain unless it says otherwise. A line that says so, or that is headed by a name, gives the form on record, which may keep a tag or linker. Residues count along the entry.
FLAG-tagged thyroglobulin, WT (P01266, residues 20-2768): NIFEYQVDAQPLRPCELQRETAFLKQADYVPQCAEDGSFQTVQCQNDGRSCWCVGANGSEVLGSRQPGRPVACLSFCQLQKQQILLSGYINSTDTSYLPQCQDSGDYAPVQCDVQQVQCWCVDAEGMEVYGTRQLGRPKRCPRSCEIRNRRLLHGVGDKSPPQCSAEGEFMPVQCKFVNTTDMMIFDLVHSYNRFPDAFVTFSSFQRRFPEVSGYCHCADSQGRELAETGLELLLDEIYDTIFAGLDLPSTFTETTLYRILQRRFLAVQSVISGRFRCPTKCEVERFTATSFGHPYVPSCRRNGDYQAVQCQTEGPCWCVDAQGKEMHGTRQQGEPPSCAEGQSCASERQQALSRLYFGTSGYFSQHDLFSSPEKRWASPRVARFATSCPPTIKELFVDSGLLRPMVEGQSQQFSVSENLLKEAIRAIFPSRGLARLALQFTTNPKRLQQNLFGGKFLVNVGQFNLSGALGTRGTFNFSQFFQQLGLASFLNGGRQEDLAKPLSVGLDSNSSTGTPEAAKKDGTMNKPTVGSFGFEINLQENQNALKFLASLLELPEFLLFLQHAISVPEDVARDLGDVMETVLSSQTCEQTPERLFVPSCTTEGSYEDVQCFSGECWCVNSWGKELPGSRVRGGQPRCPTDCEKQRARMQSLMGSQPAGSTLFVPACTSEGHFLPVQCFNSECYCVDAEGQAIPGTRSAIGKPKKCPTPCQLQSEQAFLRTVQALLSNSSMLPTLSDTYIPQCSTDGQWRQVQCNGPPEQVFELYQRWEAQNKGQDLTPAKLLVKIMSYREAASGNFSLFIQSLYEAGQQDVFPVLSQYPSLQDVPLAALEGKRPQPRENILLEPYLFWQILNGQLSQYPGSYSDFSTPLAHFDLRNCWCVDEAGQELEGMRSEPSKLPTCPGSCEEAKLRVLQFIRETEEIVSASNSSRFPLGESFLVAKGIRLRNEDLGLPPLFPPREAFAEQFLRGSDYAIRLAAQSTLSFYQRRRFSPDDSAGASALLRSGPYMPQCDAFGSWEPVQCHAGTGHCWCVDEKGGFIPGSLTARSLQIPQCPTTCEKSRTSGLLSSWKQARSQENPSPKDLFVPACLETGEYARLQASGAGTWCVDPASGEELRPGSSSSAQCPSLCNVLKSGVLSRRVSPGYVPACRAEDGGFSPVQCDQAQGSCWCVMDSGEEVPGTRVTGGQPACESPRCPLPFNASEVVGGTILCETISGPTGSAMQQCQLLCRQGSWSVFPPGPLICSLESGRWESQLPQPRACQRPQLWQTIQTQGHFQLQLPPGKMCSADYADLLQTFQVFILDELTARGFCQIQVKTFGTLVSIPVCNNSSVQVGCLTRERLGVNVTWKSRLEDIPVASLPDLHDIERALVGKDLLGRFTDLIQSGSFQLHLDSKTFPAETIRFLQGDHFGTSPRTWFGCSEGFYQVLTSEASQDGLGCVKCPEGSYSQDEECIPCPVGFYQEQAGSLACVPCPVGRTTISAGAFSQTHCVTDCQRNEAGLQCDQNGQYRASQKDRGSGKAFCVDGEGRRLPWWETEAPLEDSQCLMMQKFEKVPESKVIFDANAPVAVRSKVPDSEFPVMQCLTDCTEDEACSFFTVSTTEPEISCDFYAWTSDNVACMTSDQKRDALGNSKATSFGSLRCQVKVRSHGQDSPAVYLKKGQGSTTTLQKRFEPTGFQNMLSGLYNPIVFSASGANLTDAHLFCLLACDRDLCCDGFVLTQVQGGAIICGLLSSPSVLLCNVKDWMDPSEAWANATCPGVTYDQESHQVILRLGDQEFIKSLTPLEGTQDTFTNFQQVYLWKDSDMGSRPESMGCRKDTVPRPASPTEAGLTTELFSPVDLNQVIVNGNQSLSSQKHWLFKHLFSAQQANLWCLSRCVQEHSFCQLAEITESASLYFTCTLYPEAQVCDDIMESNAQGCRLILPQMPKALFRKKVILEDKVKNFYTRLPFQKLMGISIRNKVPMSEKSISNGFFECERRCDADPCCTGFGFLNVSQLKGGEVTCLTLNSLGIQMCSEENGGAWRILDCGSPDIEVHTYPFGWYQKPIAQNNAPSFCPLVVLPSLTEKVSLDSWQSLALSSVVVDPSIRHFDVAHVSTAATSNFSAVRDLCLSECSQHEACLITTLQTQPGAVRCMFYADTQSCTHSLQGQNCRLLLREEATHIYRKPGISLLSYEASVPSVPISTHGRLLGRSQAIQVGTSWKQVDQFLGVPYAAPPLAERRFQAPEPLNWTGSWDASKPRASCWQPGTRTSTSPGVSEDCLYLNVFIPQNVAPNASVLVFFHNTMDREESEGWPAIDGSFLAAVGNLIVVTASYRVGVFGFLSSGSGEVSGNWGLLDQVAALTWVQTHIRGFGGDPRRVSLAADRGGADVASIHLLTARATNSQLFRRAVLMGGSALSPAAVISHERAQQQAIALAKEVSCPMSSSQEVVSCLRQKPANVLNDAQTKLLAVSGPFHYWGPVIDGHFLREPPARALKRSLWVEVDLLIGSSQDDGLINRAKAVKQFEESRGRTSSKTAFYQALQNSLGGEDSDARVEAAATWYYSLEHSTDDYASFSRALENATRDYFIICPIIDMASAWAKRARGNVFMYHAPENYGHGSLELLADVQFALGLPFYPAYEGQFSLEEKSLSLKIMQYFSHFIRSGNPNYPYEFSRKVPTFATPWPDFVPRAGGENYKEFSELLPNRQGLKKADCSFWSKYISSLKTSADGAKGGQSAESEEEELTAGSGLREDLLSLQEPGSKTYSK
FLAG-tagged thyroglobulin G2341R (P01266, form named): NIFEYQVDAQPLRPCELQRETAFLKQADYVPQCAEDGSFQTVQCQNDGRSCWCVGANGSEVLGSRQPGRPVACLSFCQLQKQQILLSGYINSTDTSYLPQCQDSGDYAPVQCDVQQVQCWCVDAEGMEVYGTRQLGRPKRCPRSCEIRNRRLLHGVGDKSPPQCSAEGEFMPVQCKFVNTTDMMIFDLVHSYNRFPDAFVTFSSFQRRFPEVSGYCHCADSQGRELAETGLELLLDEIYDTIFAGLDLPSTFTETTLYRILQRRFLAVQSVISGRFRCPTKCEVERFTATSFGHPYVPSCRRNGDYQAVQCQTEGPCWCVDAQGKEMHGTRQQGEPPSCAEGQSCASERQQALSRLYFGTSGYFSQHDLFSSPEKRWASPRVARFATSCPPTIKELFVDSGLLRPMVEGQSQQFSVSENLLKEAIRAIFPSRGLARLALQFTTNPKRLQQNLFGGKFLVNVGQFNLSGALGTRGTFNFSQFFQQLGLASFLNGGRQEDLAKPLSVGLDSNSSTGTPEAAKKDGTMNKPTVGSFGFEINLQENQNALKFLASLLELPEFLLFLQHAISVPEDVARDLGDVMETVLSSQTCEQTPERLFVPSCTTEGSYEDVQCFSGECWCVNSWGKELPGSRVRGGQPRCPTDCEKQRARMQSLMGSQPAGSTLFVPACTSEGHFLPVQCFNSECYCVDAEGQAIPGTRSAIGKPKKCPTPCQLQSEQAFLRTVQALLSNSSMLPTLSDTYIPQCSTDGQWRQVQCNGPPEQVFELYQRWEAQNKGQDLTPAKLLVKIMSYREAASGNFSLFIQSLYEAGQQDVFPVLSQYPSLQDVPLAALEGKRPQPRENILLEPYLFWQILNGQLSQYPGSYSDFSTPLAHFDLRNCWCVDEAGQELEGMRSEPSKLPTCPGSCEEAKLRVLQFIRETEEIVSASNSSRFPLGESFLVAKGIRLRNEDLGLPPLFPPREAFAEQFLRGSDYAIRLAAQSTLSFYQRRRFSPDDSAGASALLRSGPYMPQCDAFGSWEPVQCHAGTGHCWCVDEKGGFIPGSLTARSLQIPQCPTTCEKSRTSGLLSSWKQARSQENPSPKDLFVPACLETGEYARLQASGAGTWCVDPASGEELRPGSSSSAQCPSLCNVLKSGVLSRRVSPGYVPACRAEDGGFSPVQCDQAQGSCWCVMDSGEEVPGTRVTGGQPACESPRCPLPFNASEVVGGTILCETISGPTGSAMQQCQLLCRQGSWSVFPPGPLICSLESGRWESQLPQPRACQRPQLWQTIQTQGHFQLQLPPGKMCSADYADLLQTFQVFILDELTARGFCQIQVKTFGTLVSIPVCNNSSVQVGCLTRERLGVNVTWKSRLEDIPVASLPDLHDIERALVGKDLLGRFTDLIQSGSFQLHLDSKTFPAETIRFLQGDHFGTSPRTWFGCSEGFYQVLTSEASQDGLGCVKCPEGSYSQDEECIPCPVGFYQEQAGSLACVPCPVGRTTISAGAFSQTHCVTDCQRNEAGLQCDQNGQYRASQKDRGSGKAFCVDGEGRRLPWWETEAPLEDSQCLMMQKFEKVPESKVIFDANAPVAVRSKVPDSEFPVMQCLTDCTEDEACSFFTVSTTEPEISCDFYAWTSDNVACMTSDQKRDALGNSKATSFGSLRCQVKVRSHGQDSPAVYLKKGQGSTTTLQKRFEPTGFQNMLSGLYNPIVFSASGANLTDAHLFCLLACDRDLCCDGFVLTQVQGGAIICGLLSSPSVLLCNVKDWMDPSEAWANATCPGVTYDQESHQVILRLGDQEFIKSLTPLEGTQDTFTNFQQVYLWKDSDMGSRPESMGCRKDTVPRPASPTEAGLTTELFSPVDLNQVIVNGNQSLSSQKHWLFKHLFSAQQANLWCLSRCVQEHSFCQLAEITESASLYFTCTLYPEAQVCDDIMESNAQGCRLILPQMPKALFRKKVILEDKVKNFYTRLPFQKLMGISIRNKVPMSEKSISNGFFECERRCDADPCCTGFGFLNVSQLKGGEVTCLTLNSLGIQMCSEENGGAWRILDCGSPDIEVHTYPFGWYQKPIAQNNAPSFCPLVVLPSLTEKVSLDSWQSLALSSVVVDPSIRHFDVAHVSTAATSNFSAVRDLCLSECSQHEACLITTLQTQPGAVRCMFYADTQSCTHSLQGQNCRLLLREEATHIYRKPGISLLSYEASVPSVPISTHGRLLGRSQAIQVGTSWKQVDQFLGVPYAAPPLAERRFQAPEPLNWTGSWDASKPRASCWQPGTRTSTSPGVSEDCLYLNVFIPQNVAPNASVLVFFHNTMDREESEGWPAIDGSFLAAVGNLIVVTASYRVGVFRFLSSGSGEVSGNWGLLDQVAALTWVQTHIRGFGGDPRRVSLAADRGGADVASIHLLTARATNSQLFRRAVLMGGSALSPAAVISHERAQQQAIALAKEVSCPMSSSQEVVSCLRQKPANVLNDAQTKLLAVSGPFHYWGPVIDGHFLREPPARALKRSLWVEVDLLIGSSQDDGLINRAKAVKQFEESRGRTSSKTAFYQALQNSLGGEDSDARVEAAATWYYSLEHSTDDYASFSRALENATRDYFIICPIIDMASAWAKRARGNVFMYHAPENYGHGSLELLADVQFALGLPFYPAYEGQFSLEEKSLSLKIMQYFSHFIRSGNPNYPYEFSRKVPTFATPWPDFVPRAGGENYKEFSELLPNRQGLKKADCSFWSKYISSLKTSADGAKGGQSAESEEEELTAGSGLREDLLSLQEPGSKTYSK

What was measured:
Test in all cases: affinity purification with mass spectrometry; FLAG-Tg variants transiently expressed in HEK293 cells; cells cross-linked with 0.5 mM DSP, RIPA lysate, M2 anti-flag agarose or G1 Anti-DYKDDDDK resin overnight at 4 °C, four RIPA washes; TMT sixplex LC-MS/MS against mock AP (untagged Tg, EGFP or tdTomato)
[1] = target: FLAG-tagged thyroglobulin G2341R (human) (UniProt P01266)
[2] = target: FLAG-tagged thyroglobulin C1264R (human) (UniProt P01266)
[3] = target: FLAG-tagged thyroglobulin L2284P (human) (UniProt P01266)
[4] = target: FLAG-tagged thyroglobulin A2234D (human) (UniProt P01266)
[5] = target: FLAG-tagged thyroglobulin, WT (human) (UniProt P01266)

Measured: binding

B1: TBC1D15 (protein, UniProt Q8TC07 1-691)
chain: MAAAGVVSGKIIYEQEGVYIHSSCGKTNDQDGLISGILRVLEKDAEVIVDWRPLDDALDSSSILYARKDSSSVVEWTQAPKERGHRGSEHLNSYEAEWDMVNTVSFKRKPHTNGDAPSHRNGKSKWSFLFSLTDLKSIKQNKEGMGWSYLVFCLKDDVVLPALHFHQGDSKLLIESLEKYVVLCESPQDKRTLLVNCQNKSLSQSFENLLDEPAYGLIQAGLLDRRKLLWAIHHWKKIKKDPYTATMIGFSKVTNYIFDSLRGSDPSTHQRPPSEMADFLSDAIPGLKINQQEEPGFEVITRIDLGERPVVQRREPVSLEEWTKNIDSEGRILNVDNMKQMIFRGGLSHALRKQAWKFLLGYFPWDSTKEERTQLQKQKTDEYFRMKLQWKSISQEQEKRNSRLRDYRSLIEKDVNRTDRTNKFYEGQDNPGLILLHDILMTYCMYDFDLGYVQGMSDLLSPLLYVMENEVDAFWCFASYMDQMHQNFEEQMQGMKTQLIQLSTLLRLLDSGFCSYLESQDSGYLYFCFRWLLIRFKREFSFLDILRLWEVMWTELPCTNFHLLLCCAILESEKQQIMEKHYGFNEILKHINELSMKIDVEDILCKAEAISLQMVKCKELPQAVCEILGLQGSEVTTPDSDVGEDENVVMTPCPTSAFQSNALPTLSASGARNDSPTQIPVSSDVCRLTPA
binds: [1]

B2: protein disulfide isomerase family A member 4 (protein, UniProt P13667 21-645)
chain: VAGAEGPDEDSSNRENAIEDEEEEEEEDDDEEEDDLEVKEENGVLVLNDANFDNFVADKDTVLLEFYAPWCGHCKQFAPEYEKIANILKDKDPPIPVAKIDATSASVLASRFDVSGYPTIKILKKGQAVDYEGSRTQEEIVAKVREVSQPDWTPPPEVTLVLTKENFDEVVNDADIILVEFYAPWCGHCKKLAPEYEKAAKELSKRSPPIPLAKVDATAETDLAKRFDVSGYPTLKIFRKGRPYDYNGPREKYGIVDYMIEQSGPPSKEILTLKQVQEFLKDGDDVIIIGVFKGESDPAYQQYQDAANNLREDYKFHHTFSTEIAKFLKVSQGQLVVMQPEKFQSKYEPRSHMMDVQGSTQDSAIKDFVLKYALPLVGHRKVSNDAKRYTRRPLVVVYYSVDFSFDYRAATQFWRSKVLEVAKDFPEYTFAIADEEDYAGEVKDLGLSESGEDVNAAILDESGKKFAMEPEEFDSDTLREFVTAFKKGKLKPVIKSQPVPKNNKGPVKVVVGKTFDSIVMDPKKDVLIEFYAPWCGHCKQLEPVYNSLAKKYKGQKGLVIAKMDATANDVPSDRYKVEGFPTIYFAPSGDKKNPVKFEGGDRDLEHLSKFIEEHATKLSRTKEEL
binds: all assays above

B3: protein disulfide isomerase family A member 6 (protein, UniProt Q15084 20-440)
chain: LYSSSDDVIELTPSNFNREVIQSDSLWLVEFYAPWCGHCQRLTPEWKKAATALKDVVKVGAVDADKHHSLGGQYGVQGFPTIKIFGSNKNRPEDYQGGRTGEAIVDAALSALRQLVKDRLGGRSGGYSSGKQGRSDSSSKKDVIELTDDSFDKNVLDSEDVWMVEFYAPWCGHCKNLEPEWAAAASEVKEQTKGKVKLAAVDATVNQVLASRYGIRGFPTIKIFQKGESPVDYDGGRTRSDIVSRALDLFSDNAPPPELLEIINEDIAKRTCEEHQLCVVAVLPHILDTGAAGRNSYLEVLLKLADKYKKKMWGWLWTEAGAQSELETALGIGGFGYPAMAAINARKMKFALLKGSFSEQGINEFLRELSFGRGSTAPVGGGAFPTIVEREPWDGRDGELPVEDDIDLSDVELDDLGKDEL
binds: all assays above

B4: DnaJ heat shock protein family member C10 (protein, UniProt Q8IXB1 33-793)
chain: DQDFYSLLGVSKTASSREIRQAFKKLALKLHPDKNPNNPNAHGDFLKINRAYEVLKDEDLRKKYDKYGEKGLEDNQGGQYESWNYYRYDFGIYDDDPEIITLERREFDAAVNSGELWFVNFYSPGCSHCHDLAPTWRDFAKEVDGLLRIGAVNCGDDRMLCRMKGVNSYPSLFIFRSGMAPVKYHGDRSKESLVSFAMQHVRSTVTELWTGNFVNSIQTAFAAGIGWLITFCSKGGDCLTSQTRLRLSGMLDGLVNVGWMDCATQDNLCKSLDITTSTTAYFPPGATLNNKEKNSILFLNSLDAKEIYLEVIHNLPDFELLSANTLEDRLAHHRWLLFFHFGKNENSNDPELKKLKTLLKNDHIQVGRFDCSSAPDICSNLYVFQPSLAVFKGQGTKEYEIHHGKKILYDILAFAKESVNSHVTTLGPQNFPANDKEPWLVDFFAPWCPPCRALLPELRRASNLLYGQLKFGTLDCTVHEGLCNMYNIQAYPTTVVFNQSNIHEYEGHHSAEQILEFIEDLMNPSVVSLTPTTFNELVTQRKHNEVWMVDFYSPWCHPCQVLMPEWKRMARTLTGLINVGSIDCQQYHSFCAQENVQRYPEIRFFPPKSNKAYHYHSYNGWNRDAYSLRIWGLGFLPQVSTDLTPQTFSEKVLQGKNHWVIDFYAPWCGPCQNFAPEFELLARMIKGKVKAGKVDCQAYAQTCQKAGIRAYPTVKFYFYERAKRNFQEEQINTRDAKAIAALISEKLETLRNQGKRNKDEL
binds: all assays above

B5: glucosidase II alpha subunit (protein, UniProt Q14697 29-944)
chain: ITLAVDRSNFKTCEESSFCKRQRSIRPGLSPYRALLDSLQLGPDSLTVHLIHEVTKVLLVLELQGLQKNMTRFRIDELEPRRPRYRVPDVLVADPPIARLSVSGRDENSVELTMAEGPYKIILTARPFRLDLLEDRSLLLSVNARGLLEFEHQRAPRVSQGSKDPAEGDGAQPEETPRDGDKPEETQGKAEKDEPGAWEETFKTHSDSKPYGPMSVGLDFSLPGMEHVYGIPEHADNLRLKVTEGGEPYRLYNLDVFQYELYNPMALYGSVPVLLAHNPHRDLGIFWLNAAETWVDISSNTAGKTLFGKMMDYLQGSGETPQTDVRWMSETGIIDVFLLLGPSISDVFRQYASLTGTQALPPLFSLGYHQSRWNYRDEADVLEVDQGFDDHNLPCDVIWLDIEHADGKRYFTWDPSRFPQPRTMLERLASKRRKLVAIVDPHIKVDSGYRVHEELRNLGLYVKTRDGSDYEGWCWPGSAGYPDFTNPTMRAWWANMFSYDNYEGSAPNLFVWNDMNEPSVFNGPEVTMLKDAQHYGGWEHRDVHNIYGLYVHMATADGLRQRSGGMERPFVLARAFFAGSQRFGAVWTGDNTAEWDHLKISIPMCLSLGLVGLSFCGADVGGFFKNPEPELLVRWYQMGAYQPFFRAHAHLDTGRREPWLLPSQHNDIIRDALGQRYSLLPFWYTLLYQAHREGIPVMRPLWVQYPQDVTTFNIDDQYLLGDALLVHPVSDSGAHGVQVYLPGQGEVWYDIQSYQKHHGPQTLYLPVTLSSIPVFQRGGTIVPRWMRVRRSSECMKDDPITLFVALSPQGTAQGELFLDDGHTFNYQTRQEFLLRRFSFSGNTLVSSSADPEGHFETPIWIERVVIIGAGKPAAVVLQTKGSPESRLSFQHDPETSVLVLRKPGINVASDWSIHLR
binds: all assays above

B6: thioredoxin-related transmembrane protein 1 (protein, UniProt Q9H3N1 27-280)
chain: RRSNVRVITDENWRELLEGDWMIEFYAPWCPACQNLQPEWESFAEWGEDLEVNIAKVDVTEQPGLSGRFIITALPTIYHCKDGEFRRYQGPRTKKDFINFISDKEWKSIEPVSSWFGPGSVLMSSMSALFQLSMWIRTCHNYFIEDLGLPVWGSYTVFALATLFSGLLLGLCMIFVADCLCPSKRRRPQPYPYPSKKLLSESAQPLKKVEEEQEADEEDVSEEEAESKEGTNKDFPQNAIRQRSLGPSLATDKS
binds: [2] | [5]

B7: oligosaccharyl transferase complex catalytic subunit B (protein, UniProt Q8TCJ2 1-826)
chain: MAEPSAPESKHKSSLNSSPWSGLMALGNSRHGHHGPGAQCAHKAAGGAAPPKPAPAGLSGGLSQPAGWQSLLSFTILFLAWLAGFSSRLFAVIRFESIIHEFDPWFNYRSTHHLASHGFYEFLNWFDERAWYPLGRIVGGTVYPGLMITAGLIHWILNTLNITVHIRDVCVFLAPTFSGLTSISTFLLTRELWNQGAGLLAACFIAIVPGYISRSVAGSFDNEGIAIFALQFTYYLWVKSVKTGSVFWTMCCCLSYFYMVSAWGGYVFIINLIPLHVFVLLLMQRYSKRVYIAYSTFYIVGLILSMQIPFVGFQPIRTSEHMAAAGVFALLQAYAFLQYLRDRLTKQEFQTLFFLGVSLAAGAVFLSVIYLTYTGYIAPWSGRFYSLWDTGYAKIHIPIIASVSEHQPTTWVSFFFDLHILVCTFPAGLWFCIKNINDERVFVALYAISAVYFAGVMVRLMLTLTPVVCMLSAIAFSNVFEHYLGDDMKRENPPVEDSSDEDDKRNQGNLYDKAGKVRKHATEQEKTEEGLGPNIKSIVTMLMLMLLMMFAVHCTWVTSNAYSSPSVVLASYNHDGTRNILDDFREAYFWLRQNTDEHARVMSWWDYGYQIAGMANRTTLVDNNTWNNSHIALVGKAMSSNETAAYKIMRTLDVDYVLVIFGGVIGYSGDDINKFLWMVRIAEGEHPKDIRESDYFTPQGEFRVDKAGSPTLLNCLMYKMSYYRFGEMQLDFRTPPGFDRTRNAEIGNKDIKFKHLEEAFTSEHWLVRIYKVKAPDNRETLDHKPRVTNIFPKQKYLSKKTTKRKRGYIKNKLVFKKGKKISKKTV
binds: all assays above
